Measurements from PMC8745574.
These are yes or no findings as the source states them, for the method shown. Some entries that bind do so weakly or less than the wild type.

T1: POT1a (Arabidopsis thaliana) (UniProt Q56Y52)
T1 sequence: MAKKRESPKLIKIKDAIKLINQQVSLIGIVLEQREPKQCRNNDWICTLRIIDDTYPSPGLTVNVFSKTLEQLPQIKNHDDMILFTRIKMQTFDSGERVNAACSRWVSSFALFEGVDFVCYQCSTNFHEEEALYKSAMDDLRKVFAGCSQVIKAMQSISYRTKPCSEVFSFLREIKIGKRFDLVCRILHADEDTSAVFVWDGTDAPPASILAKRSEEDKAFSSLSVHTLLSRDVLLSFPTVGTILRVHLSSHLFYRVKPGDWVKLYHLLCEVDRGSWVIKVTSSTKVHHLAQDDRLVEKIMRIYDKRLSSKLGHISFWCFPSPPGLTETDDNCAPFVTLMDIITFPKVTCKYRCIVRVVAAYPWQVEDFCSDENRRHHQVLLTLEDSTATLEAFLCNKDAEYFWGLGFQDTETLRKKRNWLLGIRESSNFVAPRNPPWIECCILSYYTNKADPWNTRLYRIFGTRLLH


Target: T1, POT1a (Arabidopsis thaliana)
Test: two-hybrid; Matchmaker GAL4 system, pGADT7-DEST/pGBKT7-DEST, S. cerevisiae PJ69-4α, 30 °C; growth on -LWH plates (with increasing 3-aminotriazol) and -LWHAde plates

| binding | Binder |
| --- | --- |
| no binding | p23-like chaperone AT4G02450 (protein, UniProt Q8L7U4 1-241) MSRHPEVKWAETTEKIFLTVVLADTKDTKVNLDPEGVFDFSAKVGPENHVYELKLELADKVNVEESKINIGERSIFCIIEKAEPERWNKLLRVKKPPHYVKVDWDKWVDEDDEGSAGAADMDMAGMEGMGGMGGMGGMGGMGGMGGMGGMGGMEGMDFSKLMGGMGGMGGMGGLEGLGGMGGMGGMGGMGGMGGMEEFEDSDDEEETAKSGDKKDDAVKEEGLATEKAPAAEETTSVKEDK |
| binds | Whirly1 (WHY1) (protein, UniProt Q9M9S3 1-263) MSQLLSTPLMAVNSNPRFLSSSSVLVTGGFAVKRHGFALKPTTKTVKLFSVKSRQTDYFEKQRFGDSSSSPSPAEGLPARFYVGHSIYKGKAALTVDPRAPEFVALDSGAFKLSKDGFLLLQFAPSAGVRQYDWSKKQVFSLSVTEIGTLVSLGPRESCEFFHDPFKGKSDEGKVRKVLKVEPLPDGSGHFFNLSVQNKLVNVDESIYIPITRAEFAVLISAFNFVLPYLIGWHAFANSIKPEETSRVNNASPNYGGDYEWNR |
| no binding | RAD23-1 (protein, UniProt Q84L33 1-371) MKLTVKTLKGSHFEIRVLPSDTIMAVKKNIEDSQGKDNYPCGQQLLIHNGKVLKDETSLVENKVTEEGFLVVMLSKSKSGGSAGQASVQTSSVSQPVSATTSSTKPAAPSTTQSSPVPASPIPAQEQPAAQTDTYGQAASTLVSGSSLEQMVQQIMEMGGGSWDKETVTRALRAAYNNPERAVDYLYSGIPQTAEVAVPVPEAQIAGSGAAPVAPASGGPNSSPLDLFPQETVAAAGSGDLGTLEFLRNNDQFQQLRTMVHSNPQILQPMLQELGKQNPQLLRLIQENQAEFLQLVNEPYEGSDGEGDMFDQPEQEMPHAINVTPAEQEAIQRLEAMGFDRALVIEAFLACDRNEELAANYLLENSGDFED |
| binds | WDR26 (WD-40 REPEAT 26) (protein, UniProt Q9FNN2 1-589) MGVVEDTEPPLKRAKRLADEPNGFSANSSVRGSSVNSNSLGDLMARPLPSQGDDETIGSKGVIRKSEFVRIITRALYSLGYDKTGAMLEEESGISLHNSTIKLFLQQVKDGKWDQSVKTLHRIGFPDEKAVKAASFLLLEQKFLEFLKVEKIADALRTLRNEMAPLRINTKRVHELASSLISPSSFISHTTSTPGKESVNSRSKVLEELQTLLPASVIIPEKRLECLVENSLHIQRDSCVFHNTLDSDLSLYSDHQCGKHQIPSQTAQILESHTDEVWFLQFSHNGKYLASSSKDQTAIIWEISADGHISLKHTLVGHHKPVIAILWSPDDRQVLTCGAEEVIRRWDVDSGDCVHMYEKGGISPISCGWYPDGQGIIAGMTDRSICMWDLDGREKECWKGQRTQKVSDIAMTDDGKWLVSVCKDSVISLFDREATVERLIEEEDMITSFSLSNDNKYILVNLLNQEIRLWNIEGDPKIVSRYKGHKRSRFIIRSCFGGYKQAFIASGSEDSQVYIWHRSTGKLIVELPGHAGAVNCVSWSPTNLHMLASASDDGTIRIWGLDRINQQNQKKKLVQGSSSNGVIHRCNGN |
| binds | COG2 (protein, UniProt F4JRR1 1-756) MSDLVATSPSPSSAPRSATDFFSDPYDSHPLWFKPSLFLSPNFDSESYISELRTFVPFDTLRSELRSHLASLNRELVDLINRDYADFVNLSTKLVDIDAAVVRMRAPLLELREKITGFRGSVEAALFALRNGLQQRSDAAAAREVLELLLDTFHVVSKVEKLIKVLPSTPSDWQNEDANSMGRSSMNDENSTQQDGTTMRETQSMLLERIASEMNRLKFYMAHAQNLPFIENMEKRIQSASVLLDASLGHCFIDGLNNSDTSVLYNCLRAYAAIDNTNAAEEIFRTTIVAPFIQKIITHETTTNAAGTSEDELENDYKQIKHFIAKDCKMLLEISSTDKSGLHVFDFLANSILKEVLWAIQKVKPGAFSPGRPTEFLKNYKASLDFLAYLEGYCPSRSAVTKFRAEAICVEFMKQWNVGVYFSLRFQEIAGALDSALTSPSLVFIQDSDKESSLNLILRQSDTLLECLRSCWKEDVLVFSAADKFLRLTLQLLSRYSFWVSSALNNRKSNASPSPGCEWAVSATAEDFVYVIHDVNCLVSEVCGDYLGHISQYLSSSSTEVLDVVRISIEQGGVSLEKVLPLLTKTIIDVIVDKSVEDLRQLRGITATFRMTNKPLPVRHSPYVVGLLRPVKAFLEGDKARNYLTQKTKEELLHGSVSEITRRYYELAADVVSVARKTQSSLQKLRQNAQRRGGAASGVSDQNVSETDKMCMQLFLDIQEYGRNVSALGLKPADIPEYCSFWQCVAPADRQNSISV |
| binds | COG8 (protein, UniProt Q84K25 1-569) MAMEVGEMSQPEATASLLSLASATQQPYVSELLSFTLDRLHKEPELLRVDAERIQRQMQEVAVGNYRAFITAADALLAIRQEVSSIDKHLESLIGEVPKLTSGCTEFIDSAENILEKRKMNQALLANHSTLLDLLEIPQLMDTCVRNGNFDEALDLEAFVSKLATLHPKLPVIQALAAEVRQTTQSLLSQLLQKLRSNIQLPECLRIIGYLRRIGVFGEYEMRLQFLRCREAWLTGILEDLDQKNAYEYLKGMINCHRMHLFDVVNQYRAIFSDDTSGSEENYDGGLLFSWAMHQITSHLKTLKIMLPKITEGGSLSNILDQCMYCAMGLGGVGLDFRGLLPPLFEEAVLNLFSKNMSTAVENFQLVLDSHRWVPLPSVGFPSSGINEDSKDDVTPPSYLMEHPPLAVFINGVSSALNELRPCAPLSLKNVVAHELIKGLQAVSDSLLRYNTTRMLRLSESNLFLSLCRAFVEVVFPHCATCFGRCYPGGATIVMDAKSAYEGLGRILAASSSQEPSNKSPKVISTDTKDASENGVASQPEEKQAENPNAKEEDNSPIPLQTPEITPES |
| binds | RAD23-3 (protein, UniProt Q84L31 1-419) MKIFVKTLKGTHFEIEVKPEDSVVDVKKNIESVQGADVYPAAKQMLIHQGKVLKDETTIEENKVAENSFIVIMMNKSKPASAAASSASAGTSQAKSIPPSTSQPSISPQTPASVSAPVAPAPTRPPPPAPTPTPAPVAATETVTTPIPEPVPATISSSTPAPDSAPVGSQGDVYGQAASNLAAGSNLESTIQQILDMGGGTWDRETVVLALRAAFNNPERAVEYLYTGIPEQAEVPPVARPPASAGQPANPPAQTQQPAAAPASGPNANPLDLFPQGLPNVGGNPGAGTLDFLRNSQQFQALRAMVQANPQVLQPMLQELGKQNPNLMRLIQDHQADFLRLINEPVEGGGESGNLLGQMAAGMPQPQAIQVTHEEREAIERLEAMGFERALVLEVFFACNKNEELAANYLLDHMHEFEE |
| binds | COG5 (protein, UniProt Q9C9V9 1-832) MALPPSSPSPSSPSLQRLSTFKNPPPSSLSSGAPPPQTPSSSSSSPLDSFATDPILSPFLSSSFSSASFSSAALASGSPASTAERLHQAIRLLDSQLRNDVISRHPELLAQLSSLSHADVSLSSLRSSVSSLQSSIRRVRSDLSEPIKSIRSKSVQLSNLHTATELLSHSVRTLRLSKKLRDLADFPDPDKIDLTKAAQFHFEILTMCKEYDLFGIDVIDEEIKFVTEIGEKLRSEAMKVLERGMEGLNQAEVGTGLQVFYNLGELKSTVDQLVNKYKGMAVKSVSVAMDMKAITSGSGGGFGPGGIRSSGSPHIGGGAKVREALWQRMASCMEQLCSLVVAVWHLQRVLSKKRDPFTHVLLLDEVIKEGDSMLTDRVWDALVKAFTSQMKSAYTASSFVKEIFTMGYPKLVSMIENLLERISRDTDVKGVLPAINLERKEQMVACIAIFQTAFLSLCFGRLSDLVNSIFPMSSRGSLPSKEQISQVLSHIQDEIEAVHPDARLTLLVLREIGKALSNLAQRAECQISTGPETRQISGPATSTQIRNFTLCQHLQGIHTHISSMVADLPSIATDVLSPYLAAIYDAACEPVTPLFKAMRDKLESCILQIHDQNFGADDADMDNNASSYMEELQRSILHFRKEFLSRLLPSAANANTAGTESICTRLTRQMASRVLIFYIRHASLVRPLSEWGKLRMAKDMAELELAVGQNLFPVEQLGAPYRALRAFRPLVFLETSQMGSSPLINDLPPSIVLHHLYTRGPDELESPMQKNRLSPKQYSLWLDNQREDQIWKGIKATLDDYAVKIRSRGDKEFSPVYPLMLQIGSSLTQENL |
| no binding | high-mobility-group B4 (HMGB4) protein (protein, UniProt Q42344 1-138) MKGGESKAEATSTDQRLKTRGRKAGKKTKKDPNQPKRPPSAFFVFLEDFRKEFNLANPNNKSVATVGKAAGARWKAMTDEDKAPYVAKAESRKTEYIKNVQQYNLKLASGTNREEDDSDKSKSEVDEAVSEEEAEDDD |
| binds | RAD23-4 (protein, UniProt Q84L30 1-378) MKIFVKTLSGSNFEIEVKPADKVSDVKTAIETVKGAEYPAAKQMLIHQGKVLKDETTLEENNVVENSFIVIMLSKTKASPSGASTASAPAPSATQPQTVATPQVSAPTASVPVPTSGTATAAAPATAASVQTDVYGQAASNLVAGTTLESTVQQILDMGGGSWDRDTVVRALRAAFNNPERAVEYLYSGIPAQAEIPPVAQAPATGEQAANPLAQPQQAAAPAAATGGPNANPLNLFPQGMPAADAGAGAGNLDFLRNSQQFQALRAMVQANPQILQPMLQELGKQNPQLVRLIQEHQADFLRLINEPVEGEENVMEQLEAAMPQAVTVTPEEREAIERLEGMGFDRAMVLEVFFACNKNEELAANYLLDHMHEFEDQ |
| binds | MCM7, full length (protein, UniProt P43299 1-716) MKDHDFDGDKGLAKGFLENFADANGRSKYMEILQEVSNRKIRAIQVDLDDLFNYKDESEEFLGRLTENTRRYVSIFSAAVDELLPEPTEAFPDDDHDILMTQRADDGTDNPDVSDPHQQIPSEIKRYYEVYFKAPSKGRPSTIREVKASHIGQLVRISGIVTRCSDVKPLMAVAVYTCEDCGHEIYQEVTSRVFMPLFKCPSSRCRLNSKAGNPILQLRASKFLKFQEAKMQELAEHVPKGHIPRSMTVHLRGELTRKVSPGDVVEFSGIFLPIPYTGFKALRAGLVADTYLEATSVTHFKKKYEEYEFQKDEEEQIARLAEDGDIYNKLSRSLAPEIYGHEDIKKALLLLLVGAPHRQLKDGMKIRGDVHICLMGDPGVAKSQLLKHIINVAPRGVYTTGKGSSGVGLTAAVMRDQVTNEMVLEGGALVLADMGICAIDEFDKMDESDRTAIHEVMEQQTVSIAKAGITTSLNARTAVLAAANPAWGRYDLRRTPAENINLPPALLSRFDLLWLILDRADMDSDLELAKHVLHVHQTEESPALGFEPLEPNILRAYISAARRLSPYVPAELEEYIATAYSSIRQEEAKSNTPHSYTTVRTLLSILRISAALARLRFSESVAQSDVDEALRLMQMSKISLYADDRQKAGLDAISDTYSIIRDEAARSKKTHVSYANALNWISRKGYSEAQLKECLEEYAALNVWQIDPHTFDIRFI |
